The target of this assay is T1, wild-type emerin (residues 1–222), the full nucleoplasmic domain (human) (UniProt P50402).
T1 sequence: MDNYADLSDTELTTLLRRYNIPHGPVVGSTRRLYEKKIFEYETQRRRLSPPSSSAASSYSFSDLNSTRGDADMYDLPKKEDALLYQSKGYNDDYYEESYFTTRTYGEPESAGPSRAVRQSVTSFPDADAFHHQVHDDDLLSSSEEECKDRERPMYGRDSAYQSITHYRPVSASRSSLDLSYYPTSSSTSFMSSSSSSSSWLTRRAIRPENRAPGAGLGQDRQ
Kind of assay: affinity purification with mass spectrometry; emerin 1–222 coupled to Affigel-15 beads (0.5 mg/ml), 50 mg HeLa-S3 nuclear lysate proteins, 50 mM HEPES, 250 mM NaCl, 0.1% Triton X-100, 4 h at 4 °C; eluted with SDS sample buffer; MALDI-TOF and Western blotting; BSA beads as negative control; only the target purified. On the technique in general: In western blotting, separated proteins are transferred to a membrane and probed.

Results are given in words; binding and its absence hold for the method and conditions named. In cells and extracts the contact can be indirect. These calls come from enrichment with a bait or labelling near it, and not all partners need be listed.

As for “nuclear-enriched αII-spectrin (from UniProt Q13813 1-2472)”, the binding entry was “binds”.

Values taken from article PMC509406.
